Experimental data: PMC6521623, “DIRAS3-Derived Peptide Inhibits Autophagy in Ovarian Cancer Cells by Binding to Beclin1” (Cancers, 2019)
Results are given in words; binding and its absence hold for the method and conditions named.

Protein sequences, listed by entry. Tags and fused reporters are not part of them. Residues count along the entry.
UniProt Q14457, residues 105-125: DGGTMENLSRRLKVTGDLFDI
UniProt O95661: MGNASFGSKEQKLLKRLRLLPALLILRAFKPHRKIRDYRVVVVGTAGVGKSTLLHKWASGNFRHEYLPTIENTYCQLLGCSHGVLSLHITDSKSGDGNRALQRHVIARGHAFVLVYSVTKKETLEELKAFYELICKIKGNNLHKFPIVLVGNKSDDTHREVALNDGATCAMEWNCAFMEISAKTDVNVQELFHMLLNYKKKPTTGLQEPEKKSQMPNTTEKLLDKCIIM

Biological target: Beclin1 BH3 domain peptides on the Beclin1 peptide array (residues 105-125) (UniProt Q14457)
Assay: peptide or protein array; 16mer peptide array of Beclin1 residues 1-450 on membrane, overlaid with recombinant DIRAS3 at 1 µg/mL in 1% BSA/PBS, 2 h at room temperature; detected with primary and secondary antibody, HRP; both purified

With “DIRAS3 recombinant protein (from UniProt O95661 1-229)” the binding was “no binding (tested: 1 µg/mL)”.
